{"source": "the supplement of paper PMC3334620", "note": "Whole data set: some 33,000 sequences, median “E-score (-0.5 to 0.5)” near -0.0059, cut for the highest 2% near 0.26. The list shows a part of the results."}
{"target": "T1, Cin5 (UniProt P40917)", "T1 sequence": "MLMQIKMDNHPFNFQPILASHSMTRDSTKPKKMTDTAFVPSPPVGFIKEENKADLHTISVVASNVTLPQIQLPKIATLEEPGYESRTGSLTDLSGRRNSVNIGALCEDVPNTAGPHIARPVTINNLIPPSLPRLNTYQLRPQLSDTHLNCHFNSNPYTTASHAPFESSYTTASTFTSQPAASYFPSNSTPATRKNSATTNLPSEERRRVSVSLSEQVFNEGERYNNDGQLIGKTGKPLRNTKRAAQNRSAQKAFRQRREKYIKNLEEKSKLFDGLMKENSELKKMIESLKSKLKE", "experiment": "PBM E-score (8-mer binding enrichment) (E-score (-0.5 to 0.5)); higher = stronger / more preferred TF binding", "conditions": "protein concentration: 100 nM; construct: GST-full length", "procedure,_shortened": "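Universal all-10-mer Agilent arrays, fresh or stripped once, were converted to double-stranded form by primer extension. GST-tagged yeast transcription factors from PURExpress in vitro transcription/translation, full-length or DNA-binding domain only, were applied at about 100-200 nM and detected with fluorescent anti-GST. After masliner normalisation, the Universal PBM Analysis Suite scored each ungapped eight-base word together with its reverse complement by E-score.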"}
{"sequence": "GTGAGGTA", "PBM E-score": 0.0001}
{"sequence": "CTCAGACC", "PBM E-score": -0.0636}
{"sequence": "AGTAATAT", "PBM E-score": 0.306}
{"sequence": "CACAAAAG", "PBM E-score": 0.0722}
{"sequence": "CAGGGCTC", "PBM E-score": -0.3}
{"sequence": "CTAATCGC", "PBM E-score": 0.158}
{"sequence": "CGAGAAAA", "PBM E-score": -0.0296}
{"sequence": "GCGCTACC", "PBM E-score": -0.22}
{"sequence": "AAGAAGCA", "PBM E-score": 0.0219}
{"sequence": "TTATCAAA", "PBM E-score": 0.298}
{"sequence": "GCGAGGCA", "PBM E-score": 0.0262}
{"sequence": "TATGAACA", "PBM E-score": 0.00246}
{"sequence": "AAGACGCT", "PBM E-score": -0.249}
{"sequence": "ATTTAATA", "PBM E-score": 0.295}
{"sequence": "AAATGGAA", "PBM E-score": 0.0906}
{"sequence": "ATTGCGGA", "PBM E-score": 0.0595}
{"sequence": "CCGCAAGG", "PBM E-score": -0.0452}
{"sequence": "CTAACGCA", "PBM E-score": 0.00274}
{"sequence": "GAGTCCAC", "PBM E-score": -0.184}
{"sequence": "ACTCGAAT", "PBM E-score": -0.0861}
{"sequence": "CGTAGCGA", "PBM E-score": -0.11}
{"sequence": "CACACGAG", "PBM E-score": -0.157}
{"sequence": "ATTTTGTA", "PBM E-score": 0.286}
{"sequence": "AGATTATA", "PBM E-score": 0.15}
{"sequence": "ATTCTCCG", "PBM E-score": 0.0653}
{"sequence": "AAACACGA", "PBM E-score": 0.121}
{"sequence": "CAGCTTCA", "PBM E-score": -0.185}
{"sequence": "TCAGCGAA", "PBM E-score": -0.0492}
{"sequence": "CGCGACCA", "PBM E-score": 0.1}
{"sequence": "GGTGGGTA", "PBM E-score": 0.0827}
{"sequence": "ATCCTTCG", "PBM E-score": -0.058}
{"sequence": "CACGATTA", "PBM E-score": 0.154}
{"sequence": "AGTCTGAC", "PBM E-score": -0.0909}
{"sequence": "GATGGCAC", "PBM E-score": -0.189}
{"sequence": "AAAACTGA", "PBM E-score": -0.0242}
{"sequence": "AGTTGGGC", "PBM E-score": 0.0862}
{"sequence": "GGTTTTTA", "PBM E-score": 0.0638}
{"sequence": "GACCGAAA", "PBM E-score": 0.0524}
{"sequence": "ACCGTAAG", "PBM E-score": 0.144}
{"sequence": "CCGCGGGA", "PBM E-score": 0.316}
{"sequence": "CAAAAGTA", "PBM E-score": 0.0823}
{"sequence": "AAGTCTCG", "PBM E-score": -0.241}
{"sequence": "CCGGAGGA", "PBM E-score": -0.248}
{"sequence": "ATGGGCTA", "PBM E-score": 0.13}
{"sequence": "ACTAACTA", "PBM E-score": 0.0916}
{"sequence": "TCTTTTAA", "PBM E-score": -0.00889}
{"sequence": "CTCTCCAA", "PBM E-score": 0.0368}
{"sequence": "ATGGCACA", "PBM E-score": -0.0295}
{"sequence": "CCGTTGAG", "PBM E-score": -0.157}
{"sequence": "TCATGCCA", "PBM E-score": 0}
{"sequence": "CTATGGCA", "PBM E-score": -0.0671}
{"sequence": "AGGCGGTG", "PBM E-score": -0.102}
{"sequence": "CAGCCCTC", "PBM E-score": -0.266}
{"sequence": "CCTCTGCA", "PBM E-score": -0.129}
{"sequence": "ACTAGCCG", "PBM E-score": -0.158}
{"sequence": "ACACGGCC", "PBM E-score": -0.139}
{"sequence": "CCAACCAA", "PBM E-score": -0.0346}
{"sequence": "CGCTGAGC", "PBM E-score": 0.0206}
{"sequence": "CCTACGAC", "PBM E-score": -0.123}
{"sequence": "TCGTAAAA", "PBM E-score": 0.0717}
{"sequence": "CGATTATC", "PBM E-score": 0.112}
{"sequence": "AAACAACA", "PBM E-score": 0.0705}
{"sequence": "ATAATTTG", "PBM E-score": 0.208}
{"sequence": "ACGCCACC", "PBM E-score": -0.234}
{"sequence": "TCTGAAGA", "PBM E-score": -0.225}
{"sequence": "TCTCTGCA", "PBM E-score": -0.116}
{"sequence": "CGGGGATA", "PBM E-score": -0.00936}
{"sequence": "CCACATCG", "PBM E-score": -0.0556}
{"sequence": "AAGTTGTA", "PBM E-score": 0.178}
{"sequence": "AAGGGTCG", "PBM E-score": -0.122}
{"sequence": "CGCATCCA", "PBM E-score": 0.058}
{"sequence": "GTAGTGAC", "PBM E-score": 0.124}
{"sequence": "GGCTGTAA", "PBM E-score": -0.129}
{"sequence": "AGGCATTA", "PBM E-score": -0.00853}
{"sequence": "CATCGACG", "PBM E-score": -0.0851}
{"sequence": "CGGGGTCC", "PBM E-score": -0.203}
{"sequence": "AGATCTCA", "PBM E-score": 0.0634}
{"sequence": "GCTCGATA", "PBM E-score": -0.0435}
{"sequence": "GAGAACGA", "PBM E-score": 0.0534}
{"sequence": "GCCGTTGA", "PBM E-score": -0.0093}
{"sequence": "GCTTATGA", "PBM E-score": 0.235}
{"sequence": "GGCCATGA", "PBM E-score": -0.0378}
{"sequence": "GTTGTACA", "PBM E-score": 0.0708}
{"sequence": "CAGGGTTA", "PBM E-score": -0.13}
{"sequence": "ACTGTCAC", "PBM E-score": -0.126}
{"sequence": "AGACATCA", "PBM E-score": 0.0536}
{"sequence": "AGGTGTTA", "PBM E-score": -0.00894}
{"sequence": "CGACGTCC", "PBM E-score": 0.0493}
{"sequence": "GCTCGAGA", "PBM E-score": -0.211}
{"sequence": "ACGACGCT", "PBM E-score": -0.2}
{"sequence": "ACAATAAA", "PBM E-score": 0.162}
{"sequence": "CCCGTTAA", "PBM E-score": -0.077}
{"sequence": "ATAGCTAC", "PBM E-score": 0.0829}
{"sequence": "AACATTGG", "PBM E-score": -0.151}
{"sequence": "ATCGGAGC", "PBM E-score": -0.124}
{"sequence": "ATAAGGGA", "PBM E-score": -0.038}
{"sequence": "AGGCTCGC", "PBM E-score": -0.162}
{"sequence": "AACGTAAT", "PBM E-score": 0.421}
{"sequence": "CGAAGGAA", "PBM E-score": -0.0716}
{"sequence": "ATTCTAAA", "PBM E-score": 0.021}
{"sequence": "AGATTAAA", "PBM E-score": 0.212}
{"sequence": "CCATTGAC", "PBM E-score": -0.0631}
{"sequence": "CCAGCCGC", "PBM E-score": -0.0701}
{"sequence": "AGAGTACG", "PBM E-score": -0.0321}
{"sequence": "TCCGTTCA", "PBM E-score": -0.00091}
{"sequence": "GAGGGACA", "PBM E-score": -0.0319}
{"sequence": "ATGTTAAT", "PBM E-score": 0.121}
{"sequence": "CATGCTCG", "PBM E-score": -0.0648}
{"sequence": "CAAAGGGC", "PBM E-score": -0.14}
{"sequence": "ATGGGACG", "PBM E-score": -0.114}
